Earlier results as cited in publication PMC8075256, “Transport of Alzheimer’s associated amyloid-β catalyzed by P-glycoprotein” (PLOS ONE, 2021).

Tested on: human P-gp
Conditions: relative to start; total movement; mean ± SD, n = 6; ref 35 McCormick et al. 2015

## COc1cccc2c1C(=O)c1c(O)c3c(c(O)c1C2=O)C[C@@](O)(C(C)=O)C[C@@H]3O[C@H]1C[C@H](N)[C@H](O)[C@H](C)O1 [Daunorubicin, daunorubicin]
  Center of mass position, End (3B5Z): -10.13 ± 2.72 Angstroms
